Values from PubChem BioAssay AID1259425 (University of Nebraska Medical Center, 2018)
In all, the deposit lists about 14,000 reagents; this is an unselected part. Further read-outs or replicates are left out here. No sequences are given here. The record does not give: the time to read-out.

Test: 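Find knockdowns that reproduce the gene expression pattern seen when KSR1 is lost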 (primary screen)
System: HCT116 human colon cancer cells
Knock-down reagent: siRNA pool against human genes, 50 nM siRNA
Read-out: 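After 50 nM siRNA pool, branched-DNA assay measures six marker transcripts per well, minus blank, normalised to the geometric mean of two housekeeping transcripts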
Direction: BNIP3L mRNA: higher = more BNIP3L transcript after knockdown

CTSF (cathepsin F) → BNIP3L mRNA, set 1: 0.285
SLC35E3 → BNIP3L mRNA, set 1: 0.0682
KLK3 (kallikrein related peptidase 3) → BNIP3L mRNA, set 1: 0.0982
KRT3 (keratin 3) → BNIP3L mRNA, set 1: 0.0594
PDE1C (phosphodiesterase 1C) → BNIP3L mRNA, set 1: 0.087
ZNF415 (zinc finger protein 415) → BNIP3L mRNA, set 1: 0.0698
NIP7 (nucleolar pre-rRNA processing protein NIP7) → BNIP3L mRNA, set 1: 0.174
APBA1 (amyloid beta precursor protein binding family A member 1) → BNIP3L mRNA, set 1: 0.156
KCNS1 → BNIP3L mRNA, set 1: 0.172
RMND5A (required for meiotic nuclear division 5 homolog A) → BNIP3L mRNA, set 1: 0.0664

Records listed so far whose gene name starts with K or k (3):
KLK3 (kallikrein related peptidase 3) → BNIP3L mRNA, set 1: 0.0982
KRT3 (keratin 3) → BNIP3L mRNA, set 1: 0.0594
KCNS1 → BNIP3L mRNA, set 1: 0.172

The results go on.
RPS8 (ribosomal protein S8) → BNIP3L mRNA, set 1: 0.0885
SENP7 (SUMO specific peptidase 7) → BNIP3L mRNA, set 1: 0.104
FPR3 (formyl peptide receptor 3) → BNIP3L mRNA, set 1: 0.0905
IRX6 (iroquois homeobox 6) → BNIP3L mRNA, set 1: 0.256
GPS1 (G protein pathway suppressor 1) → BNIP3L mRNA, set 1: 0.0626
EXOSC5 (exosome component 5) → BNIP3L mRNA, set 1: 0.334
STXBP2 (syntaxin binding protein 2) → BNIP3L mRNA, set 1: 0.0871
DHX33 (DEAH-box helicase 33) → BNIP3L mRNA, set 1: 0.16
VTA1 (vesicle trafficking 1) → BNIP3L mRNA, set 1: 0.0675
COMMD5 (COMM domain containing 5) → BNIP3L mRNA, set 1: 0.058
ZNF282 (zinc finger protein 282) → BNIP3L mRNA, set 1: 0.128
ARHGAP25 (Rho GTPase activating protein 25) → BNIP3L mRNA, set 1: 0.0459
ELAC1 (elaC ribonuclease Z 1) → BNIP3L mRNA, set 1: 0.0358
RBMX (RNA binding motif protein X-linked) → BNIP3L mRNA, set 1: 0.0838
PHB1 (prohibitin 1) → BNIP3L mRNA, set 1: 0.0999
PCDHA6 (protocadherin alpha 6) → BNIP3L mRNA, set 1: 0.0652
SIK3 (SIK family kinase 3) → BNIP3L mRNA, set 1: 0.082
CWC15 (CWC15 spliceosome associated protein) → BNIP3L mRNA, set 1: 0.0854
